Results: PubChem BioAssay AID1508600 (Functional Genomics Laboratory (NCATS/FGL), 2020)
The whole screen tested about 53,000 sequences, of which about 3,700 (7%) were called active.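 Rule for the calls: active = gene knockdowns whose robust z-score for IL-1 alpha signal is at least 2 or at most -2, so actives lie on both sides; inactive = the rest.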 The list shows a part of the results.

assay: Components of the Cytosolic LPS Sensing Pathway: Gene Identification via Genome-wide siRNA Screen; conditions: RAW264.7 macrophages, IL-1a HTRF, actives lie on both sides, screened at 100 nM (by protocol), cells primed 5 h with Pam3CSK4 first
Text: Non-canonical inflammasome activation by cytosolic LPS is a critical component of the host response to Gram-negative bacterial infection, however we lack a comprehensive understanding of the cellular processes that control this pathway. Here we describe a genome-wide siRNA screen to identify genes regulating the mouse macrophage IL-1 alpha response to cytosolic LPS.
RAW264.7 cells were maintained in complete DMEM media, comprising DMEM with 4.5 g/L glucose, 10% FBS (Gemini Bio-Products, West Sacramento, CA), 2 mM Glutamine (Lonza) and 20 mM HEPES (Lonza), hereafter complete DMEM.
The RNAi screen was conducted in 384-well format using the Ambion Silencer Mouse Genome siRNA Library (#4391425), which consists of three unique, nonoverlapping, nonpooled siRNAs for each of 17,000 gene targets. siRNA reagents ([…]) were stamped into 384-well white flat-bottom microplates (Corning, 3570) using a Velocity11 VPrep liquid handling system (Agilent) integrated into a BioCel robotic platform (Agilent) in columns 1-22, leaving columns 23-24 empty for negative (Ambion, Negative control #1) and positive (mouse Casp4) controls, respectively. The median value of each plate's negative control column was used to normalize sample wells, and the positive control was used to assess transfection efficiency and assay performance.
Lipofectamine RNAiMAX Transfection Reagent ([…]; Invitrogen) was added in […] serum-free, antibiotic-free media to plate wells using a Thermo Scientific Matrix WellMate and Microplate Stacker. Plates were incubated for 45 min at room temperature to allow for the sufficient formation of siRNA-lipid complexes. Cells were seeded at a density of 1x10^4 cells per well in 20 microL media containing 20% (vol/vol) FBS without antibiotics. The final concentration of siRNA in each well was 100 nM. Cells were cultured for 48h at 37 degrees C in 5% CO2 before addition of […] of TLR ligand Pam3CSK4 for 5 hours. The medium was then removed, replaced with […] growth media and cell were transfected with […] of LipidA and TransIT-TKO (Mirus) for 24 hour. At the end of the LipidA treatment, […] of supernatant was transferred to a 384 Greiner Bio-one non-binding low volume plate and […] of IL-1a HTRF reagent (Cisbio, 62MIL1APEH) was added and incubated at room temperature overnight. The plates were read on an EnVision plate reader (PerkinElmer). Cell viability was measured by adding 20ul Cell Titer Glo to the original plate and running a luminescence read on the EnVision. The quantified IL-1a signal for each siRNA gene-targeted well was divided by the median of the negative control wells and multiplied by 100 to achieve a negative control normalized value for each well/siRNA. This normalized value was then used to generate a robust z-score by first taking the log of each value and then by subtracting the median and dividing by the […].

Question: With GGAAAUCUUCAUGAUCAGUTT against Fam24b as the sequence, how does the z-score read?
Answer: active: -2.24

Question: For “CCUACUUCUCAUCGCUGAGTT against 2310022B05Rik”, which z-score is on record?
Answer: inactive: -0.455

Question: Which z-score does the source give for GGUAGAUCCAACAAAACACTT against Vps54 here?
Answer: inactive: 0.622

Question: For CCAAAACCUCAUGCUGAAATT against Zfp758, which z-score is on record?
Answer: inactive: 0.396

Question: Which z-score does the source give for GGAUAUUCUCUAGUCUCCATT against Pelo here?
Answer: inactive: -1.33

Question: Which z-score does the source give for GGUACUGGAGCAAUUGGCATT against Bpifc here?
Answer: inactive: -1.22

Question: For GGAGAAAAAGUCCAAGUCGTT against Otud7a, which z-score is on record?
Answer: inactive: -1.12

Question: Which z-score does the source give for AUCAAGCAAGGGAACUCUGTT against Noto here?
Answer: inactive: 0.431

Question: Which z-score does the source give for GGCCUAGAAACCUUGGUGUTT against Cyp2d10 here?
Answer: inactive: -0.297

Question: Which z-score does the source give for GGGAAUGAGUCAGCUCUUUTT against Cd163 here?
Answer: inactive: -0.667

Question: Which z-score does the source give for GCCUGUUGGUACCAAAUGGTT against Unc5b here?
Answer: inactive: -0.957

Question: Which z-score does the source give for GGCGAUGAGUUUGAACUGCTT against Bcl2l1 here?
Answer: inactive: 1.75

Question: For CGGACUAUUUGAAAUGGCUTT against Ppt2, which z-score is on record?
Answer: inactive: -0.464

Question: With GCAUAAAGCAGUCAUGCUUTT against Gskip as the sequence, how does the z-score read?
Answer: inactive: -0.989

Question: With GCAAGACAGAACGUAUUAATT against Fem1c as the sequence, how does the z-score read?
Answer: inactive: -1.11

Question: For GGAACAGUCGUGGUAAAGUTT against Gnl2, which z-score is on record?
Answer: inactive: -0.767

Question: With GCAUUAUAUGGCUUCAUAUTT against Mfsd14b as the sequence, how does the z-score read?
Answer: inactive: 1.37

Question: For GGACCAAAAGAACAAUACGTT against Sncaip, which z-score is on record?
Answer: inactive: -1.36

Question: With GGUUCUCAUCAUUUCAACUTT against Sh3bgrl as the sequence, how does the z-score read?
Answer: inactive: -1.61

Question: Which z-score does the source give for GGUCCACGGUUACUAAAAATT against Klrd1 here?
Answer: inactive: 1.58

Question: Which z-score does the source give for GGAACUCCUAGCACUGAAATT against Hdac4 here?
Answer: inactive: 1.17

Question: For CCUUUUUAUCGUCUAUAUCTT against Nox1, which z-score is on record?
Answer: inactive: 1.92

Question: For “CGUGUUAUCUCGUAUUGUUTT against 5930422O12Rik”, which z-score is on record?
Answer: inactive: -0.454

Question: For GGACAUGAUUAAUGAGGUGTT against Calm3, which z-score is on record?
Answer: inactive: 0.451

Question: Which z-score does the source give for GCUGGAUGUGAAAAGAGCGTT against Aktip here?
Answer: inactive: -0.00618

Question: For GCCUCACGGUUAGUUGGGATT against Cyren, which z-score is on record?
Answer: inactive: 0.461

Question: For GGACUCAACUGCACUGUUGTT against Izumo4, which z-score is on record?
Answer: active: -2.37

Question: Which z-score does the source give for GCUCGAUGCGGAUGAAUAUTT against Lzic here?
Answer: inactive: 0.311

Question: With GGUAAUGAGAUGUCAUUUCTT against Spock1 as the sequence, how does the z-score read?
Answer: inactive: 0.355
